Values from PubChem BioAssay AID504786 (Drosophila RNAi Screening Center, 2011)

- Purpose: 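Knock-downs reducing HIF reporter induction by the iron chelator DFO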 (primary screen)
- Cells: Drosophila S2 cells with a stable HIF luciferase reporter
- Reagents: long dsRNA against Drosophila genes, about 0.2 µg dsRNA per well of a 384-well plate
- Time to read-out: three days of knock-down, then 20 h of DFO before reading
- Conditions: desferrioxamine (DFO) at 100 µM, an iron chelator that mimics hypoxia, for 20 h
- Measurement: 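HIF reporter luminescence in cells given 100 µM DFO for 20 h, using the mouse ldh-a hypoxia-response element, scored as per-plate z-scores; higher means greater loss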
- Reading the numbers: z-score: higher = stronger loss of HIF reporter signal
In all, the deposit lists about 21,000 reagents; this is an unselected part of those with a known target gene and a result. 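Primary screen; positive scores mean lost reporter signal, so the sign may be inverted from the usual convention.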 The numbers tell different reagents against one gene apart. A plus sign joins genes that one reagent is predicted to hit. Not all columns of the deposit are shown.

{"Gene":"sima","reagent":1,"z-score, replicate 1":5.8}
{"Gene":"Srlp","reagent":1,"z-score, replicate 1":2.2}
{"Gene":"Naa30B","reagent":1,"z-score, replicate 1":-0.3}
{"Gene":"CG10910","reagent":1,"z-score, replicate 1":-0.2}
{"Gene":"Ge-1","reagent":1,"z-score, replicate 1":-0.6}
{"Gene":"CG7406","reagent":1,"z-score, replicate 1":0.2}
{"Gene":"CG7294","reagent":1,"z-score, replicate 1":-0.3}
{"Gene":"CG31115","reagent":1,"z-score, replicate 1":0}
{"Gene":"Desi","reagent":1,"z-score, replicate 1":-0.1}
{"Gene":"B9d1","reagent":1,"z-score, replicate 1":-0.2}
{"Gene":"CG3984","reagent":1,"z-score, replicate 1":-0.4}
{"Gene":"CG10029","reagent":1,"z-score, replicate 1":-0.1}
{"Gene":"mtrm","reagent":1,"z-score, replicate 1":-0.3}
{"Gene":"Ythdc1","reagent":1,"z-score, replicate 1":-0.4}
{"Gene":"CG5281","reagent":1,"z-score, replicate 1":-0.3}
{"Gene":"CG17271","reagent":1,"z-score, replicate 1":-0.3}
{"Gene":"Hacd1","reagent":1,"z-score, replicate 1":-0.2}
{"Gene":"Kap-alpha3","reagent":1,"z-score, replicate 1":0.1}
{"Gene":"Alg14","reagent":1,"z-score, replicate 1":-0.4}
{"Gene":"Dic1","reagent":1,"z-score, replicate 1":-0.1}
{"Gene":"CG31975 + ovm","reagent":1,"z-score, replicate 1":-0.1}
{"Gene":"CG9394","reagent":1,"z-score, replicate 1":-0.2}
{"Gene":"sicily","reagent":1,"z-score, replicate 1":-0.2}
{"Gene":"Cpr31A","reagent":1,"z-score, replicate 1":-0.1}
{"Gene":"CG5506","reagent":1,"z-score, replicate 1":-0.3}
{"Gene":"Nup160","reagent":1,"z-score, replicate 1":1.8}
{"Gene":"CG7755","reagent":1,"z-score, replicate 1":-0.1}
{"Gene":"CG7142","reagent":1,"z-score, replicate 1":-0.7}
{"Gene":"CG7579","reagent":1,"z-score, replicate 1":-0.2}
{"Gene":"CG17780 + CG17781","reagent":1,"z-score, replicate 1":-0.4}
{"Gene":"CG4267","reagent":1,"z-score, replicate 1":-0.4}
{"Gene":"gukh","reagent":1,"z-score, replicate 1":-0.1}
{"Gene":"gukh","reagent":2,"z-score, replicate 1":-0.6}
{"Gene":"gukh","reagent":3,"z-score, replicate 1":-0.1}
{"Gene":"CR14499 (retired record)","reagent":1,"z-score, replicate 1":-0.2}
{"Gene":"polyph","reagent":1,"z-score, replicate 1":0}
{"Gene":"CG8292","reagent":1,"z-score, replicate 1":-0.2}
{"Gene":"Or22a","reagent":1,"z-score, replicate 1":0.1}
{"Gene":"Vps25","reagent":1,"z-score, replicate 1":-0.3}
{"Gene":"pyx","reagent":1,"z-score, replicate 1":-0.3}
{"Gene":"pyx","reagent":2,"z-score, replicate 1":1.1}
{"Gene":"CG13751","reagent":1,"z-score, replicate 1":-0.3}
{"Gene":"Dh31-R","reagent":1,"z-score, replicate 1":0.3}
{"Gene":"Dh31-R","reagent":2,"z-score, replicate 1":-0.4}
{"Gene":"CG33307","reagent":1,"z-score, replicate 1":0.8}
{"Gene":"MAN1","reagent":1,"z-score, replicate 1":-0.3}
{"Gene":"Dus4","reagent":1,"z-score, replicate 1":-0.1}
{"Gene":"tHMG2","reagent":1,"z-score, replicate 1":0.4}
{"Gene":"CG6567","reagent":1,"z-score, replicate 1":-0.3}
{"Gene":"CG3376","reagent":1,"z-score, replicate 1":0.1}
{"Gene":"Bet1","reagent":1,"z-score, replicate 1":1.9}
